Results from doi:10.1101/2024.03.08.584044.
These are yes or no findings as the source states them, for the method shown. Binding seen in cells or lysates may run through a third protein. Some entries that bind do so weakly or less than the wild type. For part of these data: Tags and fused reporters may be left off the sequences shown.

Chains of the proteins cited; added tags and fusions are not shown.
UniProt O60645: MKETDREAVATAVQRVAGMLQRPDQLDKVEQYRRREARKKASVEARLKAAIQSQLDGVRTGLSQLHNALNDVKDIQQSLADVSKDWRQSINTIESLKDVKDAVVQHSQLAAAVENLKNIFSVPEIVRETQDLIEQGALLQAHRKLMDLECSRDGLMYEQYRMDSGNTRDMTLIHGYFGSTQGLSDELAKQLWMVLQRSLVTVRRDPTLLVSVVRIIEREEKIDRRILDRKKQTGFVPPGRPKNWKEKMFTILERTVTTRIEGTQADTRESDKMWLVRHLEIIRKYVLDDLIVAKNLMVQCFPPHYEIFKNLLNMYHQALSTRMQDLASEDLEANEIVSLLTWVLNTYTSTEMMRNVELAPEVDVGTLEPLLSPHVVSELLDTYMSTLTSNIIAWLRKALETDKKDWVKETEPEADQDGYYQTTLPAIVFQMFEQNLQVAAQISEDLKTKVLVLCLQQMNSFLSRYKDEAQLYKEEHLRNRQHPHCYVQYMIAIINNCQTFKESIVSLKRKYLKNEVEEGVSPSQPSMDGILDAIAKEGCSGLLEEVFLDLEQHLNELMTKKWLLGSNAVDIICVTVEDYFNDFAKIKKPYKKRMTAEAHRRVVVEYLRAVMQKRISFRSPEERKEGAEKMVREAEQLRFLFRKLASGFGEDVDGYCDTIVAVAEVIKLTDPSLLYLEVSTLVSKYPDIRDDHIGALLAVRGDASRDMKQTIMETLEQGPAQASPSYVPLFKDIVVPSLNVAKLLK
UniProt Q0V8C2: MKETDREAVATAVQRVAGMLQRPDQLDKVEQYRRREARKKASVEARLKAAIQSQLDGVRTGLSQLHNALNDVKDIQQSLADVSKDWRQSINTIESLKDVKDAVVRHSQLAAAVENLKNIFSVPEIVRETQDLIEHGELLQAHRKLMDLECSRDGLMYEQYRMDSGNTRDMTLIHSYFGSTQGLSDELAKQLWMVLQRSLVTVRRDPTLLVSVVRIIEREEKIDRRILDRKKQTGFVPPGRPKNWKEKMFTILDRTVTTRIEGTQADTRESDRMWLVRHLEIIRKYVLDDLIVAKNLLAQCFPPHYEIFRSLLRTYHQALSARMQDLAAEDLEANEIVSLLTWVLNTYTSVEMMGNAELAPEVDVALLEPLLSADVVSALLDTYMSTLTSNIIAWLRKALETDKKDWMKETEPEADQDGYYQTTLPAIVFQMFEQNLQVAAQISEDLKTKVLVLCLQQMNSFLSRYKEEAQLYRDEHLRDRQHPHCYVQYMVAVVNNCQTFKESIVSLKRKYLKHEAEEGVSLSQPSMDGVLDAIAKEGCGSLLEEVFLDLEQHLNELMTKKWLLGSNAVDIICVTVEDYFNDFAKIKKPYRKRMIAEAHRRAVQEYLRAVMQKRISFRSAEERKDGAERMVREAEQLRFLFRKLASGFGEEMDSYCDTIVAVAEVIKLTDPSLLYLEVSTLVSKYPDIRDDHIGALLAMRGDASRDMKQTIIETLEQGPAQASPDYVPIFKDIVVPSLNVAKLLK

Legend:
Experiment in all cases: co-IP
[1] = target: T1, Rab11a (endogenous, MDBK cells) (bovine (endogenous in MDBK)) (UniProt Q2TA29)
T1 sequence: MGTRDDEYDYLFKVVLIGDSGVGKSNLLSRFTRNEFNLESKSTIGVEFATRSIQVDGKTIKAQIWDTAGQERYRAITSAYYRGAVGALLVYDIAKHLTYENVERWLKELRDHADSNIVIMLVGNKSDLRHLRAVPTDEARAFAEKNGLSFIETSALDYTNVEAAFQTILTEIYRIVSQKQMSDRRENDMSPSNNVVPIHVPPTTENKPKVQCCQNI

Sec6-Flag = Sec6-Flag (UniProt O60645)
SNAP23-HA = target: T2, SNAP23-HA (UniProt O00161)
T2 sequence: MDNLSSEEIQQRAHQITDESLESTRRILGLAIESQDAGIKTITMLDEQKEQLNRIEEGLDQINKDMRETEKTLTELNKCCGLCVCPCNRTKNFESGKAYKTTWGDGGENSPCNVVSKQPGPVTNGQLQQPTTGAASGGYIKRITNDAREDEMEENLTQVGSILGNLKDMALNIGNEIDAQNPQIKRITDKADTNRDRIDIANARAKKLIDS

With “Sec6 (endogenous, MDBK cells) (from UniProt Q0V8C2 1-745)” the binding [1] was “binds”.

With Rab11a-GFP (from UniProt P62491 1-216) the binding (Sec6-Flag) was “binds”.

B1: Snapin-GFP (protein, UniProt O95295 1-136)
chain: MAGAGSAAVSGAGTPVAGPTGRDLFAEGLLEFLRPAVQQLDSHVHAVRESQVELREQIDNLATELCRINEDQKVALDLDPYVKKLLNARRRVVLVNNILQNAQERLRRLNHSVAKETARRRAMLDSGIYPPGSPGK
In the case of B1, the binding (SNAP23-HA) is reported as “binds”.
